The experiment concerns P388 leukemia ip, CD2F1 mice, survival T/C. Briefly: NCI In Vivo Anticancer Drug Screen. Data for tumor model P388 Leukemia (intraperitoneal) in CD2F1 (CDF1) mice. Particulars: T/C endpoint: median survival time, higher T/C = longer survival.
The mark [1] stands for this setting: dose: 3.12 mg/kg/injection, schedule: Q01DX009 (ip), vehicle: saline.
Setting [2] is: dose: 12.5 mg/kg/injection, schedule: Q01DX009 (ip), vehicle: saline.
Where [3] appears, read: dose: 25.0 mg/kg/injection, schedule: Q01DX009 (ip), vehicle: saline.
Setting [4] is: dose: 50.0 mg/kg/injection, schedule: Q01DX009 (ip), vehicle: saline.
The mark [5] stands for this setting: dose: 100.0 mg/kg/injection, schedule: Q01DX009 (ip), vehicle: saline with Tween-80.
[6] abbreviates: dose: 60.0 mg/kg/injection, schedule: Q01DX005 (ip), vehicle: saline with Tween-80.
The mark [7] stands for this setting: dose: 120.0 mg/kg/injection, schedule: Q01DX005 (ip), vehicle: saline with Tween-80.
[8] abbreviates: dose: 240.0 mg/kg/injection, schedule: Q01DX005 (ip), vehicle: saline with Tween-80.
Setting [9] is: dose: 240.0 mg/kg/injection, schedule: Q01DX005 (ip), vehicle: saline.
Where [10] appears, read: dose: 100.0 mg/kg/injection, schedule: Q01DX009 (ip), vehicle: saline.
The mark [11] stands for this setting: dose: 50.0 mg/kg/injection, schedule: Q01DX005 (ip), vehicle: saline with Tween-80.
Where [12] appears, read: dose: 200.0 mg/kg/injection, schedule: Q01DX005 (ip), vehicle: saline with Tween-80.
Setting [13] is: dose: 400.0 mg/kg/injection, schedule: Q04DX003 (ip), vehicle: saline.
Setting [14] is: dose: 200.0 mg/kg/injection, schedule: Q01DX005 (ip), vehicle: Klucel (hydroxypropylcellulose) (HPC).

The list shows only some results of the screen, not a fair sample: it is rich in T/C values a quarter to a half above the control, in often repeated tests (any T/C) and in doses without a T/C. Other doses and runs of a compound stand elsewhere. T/C: endpoint of the treated group in % of that of the vehicle group. Some doses have a count of surviving animals in place of a T/C: the source files T/C as zero there, which appears to mark a toxic dose or a test without result, not a measured value. Some doses without a T/C left all or most animals alive at the check, yet need not have been tolerated: survival well below the control is almost never listed, so the zero probably covers shortened survival too. Counts of survivors are from the toxicity check (mostly the fifth day) where no day follows; animals may have died later. Schedule codes are those of the source, read here as Q, the interval in days (D) or hours (H), X, the number of doses. For survival time, this PubChem deposit counts one and a half times the control or more as active, and values a quarter to a half above the control carry no call in these data; other NCI protocols may use other cut-offs. Some T/C values are followed by the survivors on the day toxicity was checked, most often the fifth; without a count, all were alive then. Some doses were run more than once; the values are given in rising order.

Consider `C=CC(=NC(C)(C)C)Nc1ccccc1C`, for which the survivor count (dose: 1.56 mg/kg/injection, schedule: Q01DX009 (ip), vehicle: saline) was 6 of 6; the survivor count under setting [1] was 6 of 6; the survivor count under setting [2] was 2 of 6; the survivor count under setting [3] is given as 0 of 6; the survivor count (dose: 50.0 mg/kg/injection, schedule: Q01DX009 (ip), vehicle: saline with Tween-80) is recorded as 0 of 6; the survivor count under setting [4] was 0 of 6. In addition, the survivor count by setting is: under setting [5], 0 of 6; (dose: 200.0 mg/kg/injection, schedule: Q01DX009 (ip), vehicle: saline with Tween-80) 0 of 6. Moreover, the T/C is 98, 100, 126 % of control under setting [1] and 93, 94, 111, 125 % of control (dose: 6.25 mg/kg/injection, schedule: Q01DX009 (ip), vehicle: saline).

On to `COc1cccc(NCNC2Nc3ccccc3N2)c1`, for which the survivor count is 6 of 6 under setting [6], 6 of 6 under setting [7] and 6 of 6 under setting [8].

For the molecule `O=C1N(CC2CO2)CCN1CC1CO1` (centres undefined), under setting [4], the T/C is 130 and 144 % of control.

Turning to `C=C(N)/C=C1/NC(C)=CS1`, the survivor count is recorded as 1 of 6 (dose: 120.0 mg/kg/injection, schedule: Q01DX005 (ip), vehicle: saline) and 0 of 6 under setting [9].

As for `O=C(C(=O)C(Br)Br)C(Br)Br`, the survivor count is listed as 0 of 6 (dose: 50.0 mg/kg/injection, schedule: Q01DX009 (ip), vehicle: DMSO); 0 of 6 (dose: 100.0 mg/kg/injection, schedule: Q01DX009 (ip), vehicle: DMSO); 0 of 6 (dose: 200.0 mg/kg/injection, schedule: Q01DX009 (ip), vehicle: DMSO).

Consider `CC1=CCCC(C(C)O)O1` (centres undefined), for which the survivor count is, setting by setting: under setting [4], 6 of 6; under setting [10], 6 of 6.

As to `N#C/C(C(=N)c1ccccc1)=C1\SS/C(=C(\C#N)C(=N)c2ccccc2)S1`, the survivor count (dose: 12.5 mg/kg/injection, schedule: Q01DX009 (ip), vehicle: saline with Tween-80) is given as 6 of 6.

As to `CCCCCCCCCCCCCCCCCCOP(=O)(CC(=O)NCc1cc(C(C)(C)C)c(O)c(C(C)(C)C)c1)OCCCCCCCCCCCCCCCCCC`, the survivor count (dose: 50.0 mg/kg/injection, schedule: Q04DX003 (ip), vehicle: saline with Tween-80) is 4 of 6.

Turning to `CCOC(CCl)OCC`, the T/C was 102, 105 [5 of 6 alive], 108, 139 % of control under setting [2]; 103, 106, 116, 121 % of control under setting [3]; 108, 112, 115, 117, 129 % of control under setting [4]. Moreover, the survivor count by setting is: under setting [10], 2 of 6; (dose: 200.0 mg/kg/injection, schedule: Q01DX009 (ip), vehicle: saline) 0 of 6; (dose: 400.0 mg/kg/injection, schedule: Q01DX009 (ip), vehicle: saline) 0 of 6.

As for `CCOC(=O)Nc1cc2c(c(N)n1)N=C(c1ccc(Cl)cc1Cl)CN2`, the T/C by setting is: (dose: 6.25 mg/kg/injection, schedule: Q01DX005 (ip), vehicle: saline with Tween-80) 128 % of control; (dose: 12.5 mg/kg/injection, schedule: Q01DX005 (ip), vehicle: saline with Tween-80) 149 % of control. The survivor count (dose: 25.0 mg/kg/injection, schedule: Q01DX005 (ip), vehicle: saline with Tween-80) is reported as 5 of 5 and the survivor count under setting [11] is on record as 1 of 5.

Consider `O=C(Nc1ccc(C(=O)O)cc1)Oc1ccc(N(CCCl)CCCl)cc1`, for which the survivor count is, setting by setting: under setting [5], 6 of 6; (dose: 150.0 mg/kg/injection, schedule: Q04DX003 (ip), vehicle: saline with Tween-80) 6 of 6; (dose: 200.0 mg/kg/injection, schedule: Q04DX003 (ip), vehicle: saline with Tween-80) 5 of 6; (dose: 400.0 mg/kg/injection, schedule: Q04DX003 (ip), vehicle: saline with Tween-80) 4 of 6.

Consider `FC(F)(F)c1cc(Cl)nc(Cl)n1`, for which the survivor count reads like this: under setting [11], 0 of 5; (dose: 100.0 mg/kg/injection, schedule: Q01DX005 (ip), vehicle: saline with Tween-80) 0 of 5; under setting [12], 0 of 5.

As to `O=C(N/N=C/c1cc(Br)ccc1[O-])c1ccccc1O.O=C(N/N=C/c1cc(Br)ccc1[O-])c1ccccc1O.[Co+2]`, the survivor count (dose: 400.0 mg/kg/injection, schedule: Q04DX002 (ip), vehicle: Klucel (hydroxypropylcellulose) (HPC)) is reported as 6 of 6.

On to `O=C(O)c1cccc2cccc(-c3c4ccc(=O)c(O)c-4oc4c(O)c(O)ccc34)c12`, for which, under “dose: 400.0 mg/kg/injection, schedule: Q01DX009 (ip), vehicle: saline with Tween-80”, the survivor count is 4 of 6.

Take `Cc1cncn2c(C)nnc12`: the survivor count under setting [13] is 0 of 6.

For the molecule `CC(CN(C)C)C(=O)/C=C/c1c(Cl)cccc1Cl` (centres undefined), the survivor count under setting [7] was 4 of 6 and the survivor count under setting [8] is recorded as 0 of 6.

`CC(=O)OCC1OC(OC2C=C(O[Si](C)(C)C)C[C@H]3C(=O)C=CC(=O)[C@@H]23)C(OC(C)=O)C(OC(C)=O)C1OC(C)=O` (some centres undefined): the survivor count reads like this: under setting [7], 0 of 6; under setting [8], 0 of 6.

Consider `CC1(C)CC(=O)C(=[N+]=[N-])C(=O)C1`, for which the survivor count is on record as 2 of 6 under setting [6], 0 of 6 under setting [7] and 0 of 6 under setting [8].

For the molecule `CCCCc1ccc(C(N)=O)nc1`, the survivor count under setting [14] is on record as 0 of 6.

For the molecule `CC1CN1C1=C(F)C(=O)C(N2CC2C)=C(F)C1=O` (centres undefined), the survivor count runs as follows: (dose: 6.25 mg/kg/injection, schedule: Q01DX009 (ip), vehicle: Klucel (hydroxypropylcellulose) (HPC)) 3 of 6; (dose: 12.5 mg/kg/injection, schedule: Q01DX009 (ip), vehicle: Klucel (hydroxypropylcellulose) (HPC)) 0 of 6; (dose: 25.0 mg/kg/injection, schedule: Q01DX009 (ip), vehicle: Klucel (hydroxypropylcellulose) (HPC)) 0 of 6.

With `CN(C)CCCN=C(N)CSP(=O)(O)O`, the survivor count under setting [9] is 2 of 6.

Turning to `C[CH2][Sn]([CH2]C)([O]S(C)(=O)=O)[O]S(C)(=O)=O`, the T/C (dose: 3.12 mg/kg/injection, schedule: Q04DX003 (ip), vehicle: saline) is 125 % of control and the T/C (dose: 12.5 mg/kg/injection, schedule: Q04DX003 (ip), vehicle: saline) is 133 % of control [4 of 6 alive]. Moreover, the survivor count is 0 of 6 (dose: 25.0 mg/kg/injection, schedule: Q04DX003 (ip), vehicle: saline); 0 of 6 (dose: 100.0 mg/kg/injection, schedule: Q04DX003 (ip), vehicle: saline); 0 of 6 (dose: 200.0 mg/kg/injection, schedule: Q04DX003 (ip), vehicle: saline); 0 of 6 under setting [13].

For `O=C(Nc1ccc(NC2=NCCN2)cc1)c1ccc(C(=O)Nc2ccc(NC3=NCCN3)cc2)c([N+](=O)[O-])c1`, the T/C by setting is: (dose: 3.12 mg/kg/injection, schedule: Q01DX005 (ip), vehicle: Klucel (hydroxypropylcellulose) (HPC)) 130 % of control; (dose: 6.25 mg/kg/injection, schedule: Q01DX005 (ip), vehicle: Klucel (hydroxypropylcellulose) (HPC)) 148 % of control. Further, the survivor count by setting is: (dose: 12.5 mg/kg/injection, schedule: Q01DX005 (ip), vehicle: Klucel (hydroxypropylcellulose) (HPC)) 6 of 6; (dose: 25.0 mg/kg/injection, schedule: Q01DX005 (ip), vehicle: Klucel (hydroxypropylcellulose) (HPC)) 5 of 6; (dose: 50.0 mg/kg/injection, schedule: Q01DX005 (ip), vehicle: Klucel (hydroxypropylcellulose) (HPC)) 0 of 6; (dose: 100.0 mg/kg/injection, schedule: Q01DX005 (ip), vehicle: Klucel (hydroxypropylcellulose) (HPC)) 0 of 6; under setting [14], 0 of 6.

Consider `OCc1ccc2ccc3ccc(CO)nc3c2n1`, for which, under setting [12], the survivor count is listed as 2 of 6.

The values are drawn from PubChem BioAssay AID330 (DTP/NCI, 2004).
